According to article PMC3561153:
Numbering of substitutions follows the chain as printed. Names may count otherwise. Results are given in words; binding and its absence hold for the method and conditions named. In cells and extracts the contact can be indirect. Binding calls can cover weak binding; strength is not graded here. For some of these results: Sequences can lack the tags named with a protein.

B1: Pto (enzyme, UniProt Q40234 1-321)
chain: MGSKYSKATNSINDALSSSYLVPFESYRVPLVDLEEATNNFDHKFLIGHGVFGKVYKGVLRDGAKVALKRRTPESSQGIEEFETEIETLSFCRHPHLVSLIGFCDERNEMILIYKYMENGNLKRHLYGSDLPTMSMSWEQRLEICIGAARGLHYLHTRAIIHRDVKSINILLDENFVPKITDFGISKKGTELDQTHLSTVVKGTLGYIDPEYFIKGRLTEKSDVYSFGVVLFEVLCARSAIVQSLPREMVNLAEWAVESHNNGQLEQIVDPNLADKIRPESLRKFGDTAVKCLALSSEDRPSMGDVLWKLEYALRLQESVI
B2: Pto-5Myc (enzyme, UniProt Q40234 1-321)
chain: B1 chain
B3: Pto-FLAG (enzyme, UniProt Q40234 1-321)
chain: B1 chain
B4: pto^S198A-FLAG (enzyme, UniProt Q40234 1-321)
chain: B1 chain with S198A
B5: pto^S198A/T199A-FLAG (enzyme, UniProt Q40234 1-321)
chain: B1 chain with S198A, T199A
B6: pto^T199A-FLAG (enzyme, UniProt Q40234 1-321)
chain: B1 chain with T199A
B7: pto^D164N-FLAG (enzyme, UniProt Q40234 1-321)
chain: B1 chain with D164N

Assays:
Test in all cases: co-IP; extracts of N. benthamiana leaves (transient expression; some in stable 35S:Pto plants; with or without co-expressed AvrPto, AvrPtoB or avrPtoB^F479A); HA-tagged Prf forms precipitated on anti-HA HA-7 Sepharose, 2 h at 4°C; 150 mM Tris-HCl pH 7.5, 150 mM NaCl, 5 mM EDTA, 5% glycerol, 10 mM DTT; immunoblots
[1] = target: N-term-3HA (prf^1–546-3HA) (tomato)
Prf-3HA (tomato) = Prf-3HA (tomato) (UniProt Q96485)
prf^D1416V-3HA (tomato) = target: prf^D1416V-3HA (tomato)
prf^K1128A-3HA (tomato) = target: prf^K1128A-3HA (tomato)

Binder | binding [1] | binding (Prf-3HA (tomato)) | binding (prf^D1416V-3HA (tomato)) | binding (prf^K1128A-3HA (tomato))
B1 | binds | binds | binds | binds
B2 |  | binds |  | 
B3 |  | binds |  | 
B4 |  | binds |  | 
B5 |  | binds |  | 
B6 |  | binds |  | 
B7 |  | binds |  | 
